These are yes or no findings as the source states them, for the method shown. Binding seen in cells or lysates may run through a third protein. A yes stands for co-enrichment or nearness to the bait. Other partners may have been found. Tags and fused reporters may be left off the sequences shown.

By UniProt entry, the sequences of proteins in these tests, tags left out.
UniProt P67809: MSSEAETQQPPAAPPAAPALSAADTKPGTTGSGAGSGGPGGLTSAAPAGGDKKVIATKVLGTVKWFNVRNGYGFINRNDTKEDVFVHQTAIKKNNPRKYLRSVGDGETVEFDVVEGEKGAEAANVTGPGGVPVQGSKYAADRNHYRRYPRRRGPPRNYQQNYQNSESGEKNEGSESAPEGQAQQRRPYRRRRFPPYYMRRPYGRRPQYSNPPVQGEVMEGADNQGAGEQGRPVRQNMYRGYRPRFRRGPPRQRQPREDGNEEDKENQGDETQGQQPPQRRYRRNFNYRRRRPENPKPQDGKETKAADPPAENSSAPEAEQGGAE
UniProt P04792: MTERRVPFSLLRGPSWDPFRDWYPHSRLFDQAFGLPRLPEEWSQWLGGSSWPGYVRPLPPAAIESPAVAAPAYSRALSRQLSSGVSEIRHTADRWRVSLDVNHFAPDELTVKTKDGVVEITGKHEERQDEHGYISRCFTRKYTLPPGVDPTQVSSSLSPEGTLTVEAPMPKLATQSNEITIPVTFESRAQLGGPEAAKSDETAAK
UniProt Q9NR30: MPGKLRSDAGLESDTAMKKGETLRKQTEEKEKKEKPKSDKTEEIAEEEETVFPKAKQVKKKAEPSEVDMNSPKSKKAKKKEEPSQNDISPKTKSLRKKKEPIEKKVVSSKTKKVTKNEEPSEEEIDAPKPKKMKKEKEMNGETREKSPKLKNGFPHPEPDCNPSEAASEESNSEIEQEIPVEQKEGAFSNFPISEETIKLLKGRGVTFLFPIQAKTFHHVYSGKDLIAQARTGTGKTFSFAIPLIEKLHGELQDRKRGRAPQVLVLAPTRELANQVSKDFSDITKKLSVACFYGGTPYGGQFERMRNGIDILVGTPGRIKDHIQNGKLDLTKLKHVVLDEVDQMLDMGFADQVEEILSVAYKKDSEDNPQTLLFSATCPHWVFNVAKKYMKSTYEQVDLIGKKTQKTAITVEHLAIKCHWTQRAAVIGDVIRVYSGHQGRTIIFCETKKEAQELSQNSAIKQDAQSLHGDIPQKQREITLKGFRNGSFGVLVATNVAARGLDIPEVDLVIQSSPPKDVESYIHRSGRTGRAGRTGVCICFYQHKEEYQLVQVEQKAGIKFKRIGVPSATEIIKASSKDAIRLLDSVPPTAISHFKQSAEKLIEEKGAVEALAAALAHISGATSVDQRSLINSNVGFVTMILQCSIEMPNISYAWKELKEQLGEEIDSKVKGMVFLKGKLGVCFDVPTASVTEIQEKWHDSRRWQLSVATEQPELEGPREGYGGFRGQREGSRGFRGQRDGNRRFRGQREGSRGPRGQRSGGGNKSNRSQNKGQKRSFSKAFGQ
UniProt P51114: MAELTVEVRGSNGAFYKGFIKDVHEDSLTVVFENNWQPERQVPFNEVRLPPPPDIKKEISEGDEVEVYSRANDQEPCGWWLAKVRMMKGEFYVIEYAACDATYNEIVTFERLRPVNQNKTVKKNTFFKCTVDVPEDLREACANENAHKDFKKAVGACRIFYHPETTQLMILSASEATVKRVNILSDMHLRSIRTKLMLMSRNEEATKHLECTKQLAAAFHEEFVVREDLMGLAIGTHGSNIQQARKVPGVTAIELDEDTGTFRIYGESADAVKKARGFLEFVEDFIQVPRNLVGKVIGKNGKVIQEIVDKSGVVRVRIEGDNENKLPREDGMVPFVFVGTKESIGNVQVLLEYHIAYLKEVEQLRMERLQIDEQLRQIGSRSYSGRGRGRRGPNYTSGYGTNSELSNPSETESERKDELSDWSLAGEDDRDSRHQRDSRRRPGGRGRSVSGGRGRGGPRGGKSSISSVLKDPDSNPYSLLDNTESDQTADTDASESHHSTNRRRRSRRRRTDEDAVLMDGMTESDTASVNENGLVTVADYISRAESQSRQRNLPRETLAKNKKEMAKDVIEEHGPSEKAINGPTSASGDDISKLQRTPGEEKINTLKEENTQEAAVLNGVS
UniProt P68104: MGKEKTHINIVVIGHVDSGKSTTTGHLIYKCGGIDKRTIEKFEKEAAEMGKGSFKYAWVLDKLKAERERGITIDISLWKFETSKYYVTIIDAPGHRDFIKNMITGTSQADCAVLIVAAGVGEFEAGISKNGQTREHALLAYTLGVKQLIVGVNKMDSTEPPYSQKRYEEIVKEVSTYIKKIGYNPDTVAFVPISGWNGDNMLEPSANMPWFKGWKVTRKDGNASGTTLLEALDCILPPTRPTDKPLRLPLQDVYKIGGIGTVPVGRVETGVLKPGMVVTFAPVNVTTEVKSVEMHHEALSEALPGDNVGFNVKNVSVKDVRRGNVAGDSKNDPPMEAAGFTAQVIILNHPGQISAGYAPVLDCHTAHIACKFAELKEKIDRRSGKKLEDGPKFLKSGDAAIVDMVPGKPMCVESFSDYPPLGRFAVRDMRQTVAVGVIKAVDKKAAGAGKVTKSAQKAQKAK
UniProt P11940: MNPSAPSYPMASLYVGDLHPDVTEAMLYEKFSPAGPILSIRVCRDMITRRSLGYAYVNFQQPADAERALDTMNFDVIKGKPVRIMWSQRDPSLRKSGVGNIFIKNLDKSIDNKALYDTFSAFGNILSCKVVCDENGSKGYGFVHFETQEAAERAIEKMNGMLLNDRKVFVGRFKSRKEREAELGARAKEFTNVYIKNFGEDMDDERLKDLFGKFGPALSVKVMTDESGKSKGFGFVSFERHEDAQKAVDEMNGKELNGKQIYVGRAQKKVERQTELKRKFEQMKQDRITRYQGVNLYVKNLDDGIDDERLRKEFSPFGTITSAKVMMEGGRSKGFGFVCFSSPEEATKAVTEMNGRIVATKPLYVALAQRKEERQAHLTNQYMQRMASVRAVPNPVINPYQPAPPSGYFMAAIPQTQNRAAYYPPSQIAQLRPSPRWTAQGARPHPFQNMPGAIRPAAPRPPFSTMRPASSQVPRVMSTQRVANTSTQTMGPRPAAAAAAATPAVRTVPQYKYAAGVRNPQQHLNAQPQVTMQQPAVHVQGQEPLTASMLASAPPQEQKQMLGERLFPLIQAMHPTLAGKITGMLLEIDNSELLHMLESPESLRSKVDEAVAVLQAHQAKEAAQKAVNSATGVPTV
UniProt Q5SSJ5: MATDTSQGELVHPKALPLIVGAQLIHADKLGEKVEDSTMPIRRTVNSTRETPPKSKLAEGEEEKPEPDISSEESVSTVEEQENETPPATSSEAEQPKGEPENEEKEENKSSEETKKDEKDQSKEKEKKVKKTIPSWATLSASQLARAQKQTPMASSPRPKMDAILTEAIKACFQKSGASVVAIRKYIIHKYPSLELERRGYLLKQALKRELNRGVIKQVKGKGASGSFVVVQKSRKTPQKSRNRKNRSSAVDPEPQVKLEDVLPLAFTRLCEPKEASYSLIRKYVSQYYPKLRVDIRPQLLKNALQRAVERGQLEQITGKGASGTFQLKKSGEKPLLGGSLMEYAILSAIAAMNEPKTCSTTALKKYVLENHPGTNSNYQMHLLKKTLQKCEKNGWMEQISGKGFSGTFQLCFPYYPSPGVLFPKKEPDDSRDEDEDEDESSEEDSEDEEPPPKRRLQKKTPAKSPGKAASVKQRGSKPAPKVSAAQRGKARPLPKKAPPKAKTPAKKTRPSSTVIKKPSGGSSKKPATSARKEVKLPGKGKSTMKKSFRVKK
UniProt P08670: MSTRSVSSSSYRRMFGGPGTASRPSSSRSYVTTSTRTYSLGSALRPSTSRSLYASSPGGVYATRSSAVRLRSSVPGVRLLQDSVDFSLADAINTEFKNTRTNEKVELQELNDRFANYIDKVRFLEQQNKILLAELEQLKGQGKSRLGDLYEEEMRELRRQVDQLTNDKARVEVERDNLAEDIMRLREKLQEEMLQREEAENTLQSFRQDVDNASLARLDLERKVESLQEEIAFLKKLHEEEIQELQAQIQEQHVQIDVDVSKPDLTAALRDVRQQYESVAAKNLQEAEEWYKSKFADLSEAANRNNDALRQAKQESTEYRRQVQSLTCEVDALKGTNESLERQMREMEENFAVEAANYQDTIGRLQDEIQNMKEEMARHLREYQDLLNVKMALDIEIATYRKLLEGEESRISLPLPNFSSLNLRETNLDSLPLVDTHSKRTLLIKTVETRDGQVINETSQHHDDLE
UniProt P98175: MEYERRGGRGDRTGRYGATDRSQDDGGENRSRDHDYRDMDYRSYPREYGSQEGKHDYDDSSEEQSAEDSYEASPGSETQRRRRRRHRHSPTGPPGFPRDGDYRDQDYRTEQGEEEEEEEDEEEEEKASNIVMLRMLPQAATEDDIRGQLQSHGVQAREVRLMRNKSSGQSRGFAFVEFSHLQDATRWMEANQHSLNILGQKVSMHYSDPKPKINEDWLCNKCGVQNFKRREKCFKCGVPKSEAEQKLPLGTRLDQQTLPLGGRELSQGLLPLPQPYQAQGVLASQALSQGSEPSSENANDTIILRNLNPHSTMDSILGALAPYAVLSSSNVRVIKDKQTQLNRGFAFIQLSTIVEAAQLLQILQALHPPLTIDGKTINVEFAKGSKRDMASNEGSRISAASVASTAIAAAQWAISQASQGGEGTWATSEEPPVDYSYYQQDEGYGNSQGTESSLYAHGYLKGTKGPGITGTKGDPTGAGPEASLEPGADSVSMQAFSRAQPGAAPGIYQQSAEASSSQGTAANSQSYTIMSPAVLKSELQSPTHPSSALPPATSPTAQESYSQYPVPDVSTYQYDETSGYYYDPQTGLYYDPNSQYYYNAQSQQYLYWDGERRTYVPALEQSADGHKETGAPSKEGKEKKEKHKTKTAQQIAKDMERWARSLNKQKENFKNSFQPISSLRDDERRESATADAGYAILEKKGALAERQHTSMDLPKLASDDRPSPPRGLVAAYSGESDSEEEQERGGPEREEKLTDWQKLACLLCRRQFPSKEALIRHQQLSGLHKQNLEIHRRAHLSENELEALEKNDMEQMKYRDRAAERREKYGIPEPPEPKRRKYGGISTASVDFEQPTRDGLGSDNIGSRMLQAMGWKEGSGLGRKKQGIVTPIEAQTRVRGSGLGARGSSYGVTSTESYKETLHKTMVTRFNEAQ
UniProt Q9NQT4: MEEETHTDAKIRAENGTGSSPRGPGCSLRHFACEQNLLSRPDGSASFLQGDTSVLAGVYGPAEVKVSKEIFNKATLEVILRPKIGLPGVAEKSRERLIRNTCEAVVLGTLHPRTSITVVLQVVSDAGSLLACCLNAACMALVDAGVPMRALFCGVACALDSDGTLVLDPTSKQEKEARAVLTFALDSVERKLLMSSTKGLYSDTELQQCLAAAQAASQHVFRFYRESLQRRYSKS
UniProt P05387: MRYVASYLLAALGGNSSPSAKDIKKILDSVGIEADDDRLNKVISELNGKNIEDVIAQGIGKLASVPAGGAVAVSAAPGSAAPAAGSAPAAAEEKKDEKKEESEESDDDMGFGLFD
UniProt Q7Z7K6: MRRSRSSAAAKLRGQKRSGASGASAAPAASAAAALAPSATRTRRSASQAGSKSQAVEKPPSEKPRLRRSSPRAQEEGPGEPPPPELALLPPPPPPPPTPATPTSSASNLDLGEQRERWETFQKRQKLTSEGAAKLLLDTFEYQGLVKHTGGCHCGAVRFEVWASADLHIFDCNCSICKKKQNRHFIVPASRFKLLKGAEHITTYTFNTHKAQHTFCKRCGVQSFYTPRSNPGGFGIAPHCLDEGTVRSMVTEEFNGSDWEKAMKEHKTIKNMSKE
UniProt Q9BRT6: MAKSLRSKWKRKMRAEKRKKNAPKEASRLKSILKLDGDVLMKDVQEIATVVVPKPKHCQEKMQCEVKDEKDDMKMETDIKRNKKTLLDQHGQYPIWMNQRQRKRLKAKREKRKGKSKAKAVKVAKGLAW

Drawing on publication PMC5851652, this text covers binding for 24 molecules.

The assay deals with T1, OASL-myc (human) (UniProt Q15646).
T1 sequence: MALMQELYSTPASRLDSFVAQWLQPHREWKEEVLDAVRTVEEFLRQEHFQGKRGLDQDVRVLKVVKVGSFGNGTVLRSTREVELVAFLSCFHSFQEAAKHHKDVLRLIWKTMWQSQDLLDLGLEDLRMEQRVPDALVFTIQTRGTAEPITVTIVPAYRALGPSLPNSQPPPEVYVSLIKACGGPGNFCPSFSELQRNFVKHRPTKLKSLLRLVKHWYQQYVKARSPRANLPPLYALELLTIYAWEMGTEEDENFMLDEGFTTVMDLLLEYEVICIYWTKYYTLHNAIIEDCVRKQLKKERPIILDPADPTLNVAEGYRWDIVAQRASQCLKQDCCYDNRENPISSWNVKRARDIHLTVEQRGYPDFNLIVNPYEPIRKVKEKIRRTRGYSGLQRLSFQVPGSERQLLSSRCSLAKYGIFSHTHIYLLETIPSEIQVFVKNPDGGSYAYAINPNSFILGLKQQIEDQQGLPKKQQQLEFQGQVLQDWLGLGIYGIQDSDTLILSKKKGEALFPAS
As to the kind of experiment: affinity purification with mass spectrometry; q-AP-MS: SILAC-labelled HeLa S3 cells transfected with the myc-tagged bait or LacZ-myc (forward and crossover); NP-40 lysis buffer with benzonase, 1 h at 4°C; anti-c-myc microbeads; LC-MS/MS.

“Nuclease-sensitive element-binding protein 1 (from UniProt P67809 1-324)”: the binding result is “binds”.
As for “Heat shock protein beta-1 (from UniProt P04792 1-205)”, the entry is “binds”.
As for “Nucleolar RNA helicase 2 (from UniProt Q9NR30 1-783)”, the entry is “binds”.
In the case of “Fragile X mental retardation syndrome-related protein 1 (from UniProt P51114 1-621)”, the binding result is listed as “binds”.
As for “60S acidic ribosomal protein P1 (from UniProt P05386 1-114)”, the entry is “binds”.
Take “Elongation factor 1-alpha 1 (from UniProt P68104 1-462)”: the binding entry is “binds”.
In the case of “Polyadenylate-binding protein 1 (from UniProt P11940 1-636)”, the binding result was “binds”.
As for “Heterochromatin protein 1-binding protein 3 (from UniProt Q5SSJ5 1-553)”, the entry is “binds”; as for Vimentin (from UniProt P08670 1-466), “binds”.
With “RNA-binding protein 10 (from UniProt P98175 1-930)” the entry was “binds”; with “Exosome complex component RRP46 (from UniProt Q9NQT4 1-235)”, “binds”.
With “60S acidic ribosomal protein P2 (from UniProt P05387 1-115)” the entry was “binds”.
On to “Centromere protein V (from UniProt Q7Z7K6 1-275)”, for which the binding result is “binds”.
With “Protein LLP homolog (from UniProt Q9BRT6 1-129)” the entry was “binds”.

B1: Double-stranded RNA-binding protein Staufen homolog 2 (protein, UniProt Q9NUL3 1-570)
chain: MANPKEKTAMCLVNELARFNRVQPQYKLLNERGPAHSKMFSVQLSLGEQTWESEGSSIKKAQQAVANKALTESTLPKPVQKPPKSNVNNNPGSITPTVELNGLAMKRGEPAIYRPLDPKPFPNYRANYNFRGMYNQRYHCPVPKIFYVQLTVGNNEFFGEGKTRQAARHNAAMKALQALQNEPIPERSPQNGESGKDVDDDKDANKSEISLVFEIALKRNMPVSFEVIKESGPPHMKSFVTRVSVGEFSAEGEGNSKKLSKKRAATTVLQELKKLPPLPVVEKPKLFFKKRPKTIVKAGPEYGQGMNPISRLAQIQQAKKEKEPDYVLLSERGMPRRREFVMQVKVGNEVATGTGPNKKIAKKNAAEAMLLQLGYKASTNLQDQLEKTGENKGWSGPKPGFPEPTNNTPKGILHLSPDVYQEMEASRHKVISGTTLGYLSPKDMNQPSSSFFSISPTSNSSATIARELLMNGTSSTAEAIGLKGSSPTPPCSPVQPSKQLEYLARIQGFQAALSALKQFSEQGLDPIDGAMNIEKGSLEKQAKHLREKADNNQAPPGSIAQDCKKSNSAV
As for B1, the binding result is “binds”.

B2: Ribosome biogenesis regulatory protein homolog (protein, UniProt Q15050 1-365)
chain: MEGQSVEELLAKAEQDEAEKLQRITVHKELELQFDLGNLLASDRNPPTGLRCAGPTPEAELQALARDNTQLLINQLWQLPTERVEEAIVARLPEPTTRLPREKPLPRPRPLTRWQQFARLKGIRPKKKTNLVWDEVSGQWRRRWGYQRARDDTKEWLIEVPGNADPLEDQFAKRIQAKKERVAKNELNRLRNLARAHKMQLPSAAGLHPTGHQSKEELGRAMQVAKVSTASVGRFQERLPKEKVPRGSGKKRKFQPLFGDFAAEKKNQLELLRVMNSKKPQLDVTRATNKQMREEDQEEAAKRRKMSQKGKRKGGRQGPGGKRKGGPPSQGGKRKGGLGGKMNSGPPGLGGKRKGGQRPGGKRRK
As to B2, the binding entry is on record as “binds”.

B3: Ataxin-2-like protein (protein, UniProt Q8WWM7 1-1075)
chain: MLKPQPLQQPSQPQQPPPTQQAVARRPPGGTSPPNGGLPGPLATSAAPPGPPAAASPCLGPVAAAGSGLRRGAEGILAPQPPPPQQHQERPGAAAIGSARGQSTGKGPPQSPVFEGVYNNSRMLHFLTAVVGSTCDVKVKNGTTYEGIFKTLSSKFELAVDAVHRKASEPAGGPRREDIVDTMVFKPSDVMLVHFRNVDFNYATKDKFTDSAIAMNSKVNGEHKEKVLQRWEGGDSNSDDYDLESDMSNGWDPNEMFKFNEENYGVKTTYDSSLSSYTVPLEKDNSEEFRQRELRAAQLAREIESSPQYRLRIAMENDDGRTEEEKHSAVQRQGSGRESPSLASREGKYIPLPQRVREGPRGGVRCSSSRGGRPGLSSLPPRGPHHLDNSSPGPGSEARGINGGPSRMSPKAQRPLRGAKTLSSPSNRPSGETSVPPPPAVGRMYPPRSPKSAAPAPISASCPEPPIGSAVPTSSASIPVTSSVSDPGVGSISPASPKISLAPTDVKELSTKEPGRTLEPQELARIAGKVPGLQNEQKRFQLEELRKFGAQFKLQPSSSPENSLDPFPPRILKEEPKGKEKEVDGLLTSEPMGSPVSSKTESVSDKEDKPPLAPSGGTEGPEQPPPPCPSQTGSPPVGLIKGEDKDEGPVAEQVKKSTLNPNAKEFNPTKPLLSVNKSTSTPTSPGPRTHSTPSIPVLTAGQSGLYSPQYISYIPQIHMGPAVQAPQMYPYPVSNSVPGQQGKYRGAKGSLPPQRSDQHQPASAPPMMQAAAAAGPPLVAATPYSSYIPYNPQQFPGQPAMMQPMAHYPSQPVFAPMLQSNPRMLTSGSHPQAIVSSSTPQYPSAEQPTPQALYATVHQSYPHHATQLHAHQPQPATTPTGSQPQSQHAAPSPVQHQAGQAPHLGSGQPQQNLYHPGALTGTPPSLPPGPSAQSPQSSFPQPAAVYAIHHQQLPHGFTNMAHVTQAHVQTGITAAPPPHPGAPHPPQVMLLHPPQSHGGPPQGAVPQSGVPALSASTPSPYPYIGHPQGEQPGQAPGFPGGADDRIREFSLAGGIWHGRAEGLQVGQDARVLGGE
With B3, the binding entry is given as “binds”.

B4: M-phase phosphoprotein 6 (protein, UniProt Q99547 1-160)
chain: MAAERKTRLSKNLLRMKFMQRGLDSETKKQLEEEEKKIISEEHWYLDLPELKEKESFIIEEQSFLLCEDLLYGRMSFRGFNPEVEKLMLQMNAKHKAEEVEDETVELDVSDEEMARRYETLVGTIGKKFARKRDHANYEEDENGDITPIKAKKMFLKPQD
Turning to B4, the binding entry is “binds”.

B5: Uncharacterized protein C7orf50 (protein, UniProt Q9BRJ6 1-194)
chain: MAKQKRKVPEVTEKKNKKLKKASAEGPLLGPEAAPSGEGAGSKGEAVLRPGLDAEPELSPEEQRVLERKLKKERKKEERQRLREAGLVAQHPPARRSGAELALDYLCRWAQKHKNWRFQKTRQTWLLLHMYDSDKVPDEHFSTLLAYLEGLQGRARELTVQKAEALMRELDEEGSDPPLPGRAQRIRQVLQLLS
In the case of B5, the binding result is given as “binds”.

B6: rRNA 2'-O-methyltransferase fibrillarin (protein, UniProt P22087 1-321)
chain: MKPGFSPRGGGFGGRGGFGDRGGRGGRGGFGGGRGRGGGFRGRGRGGGGGGGGGGGGGRGGGGFHSGGNRGRGRGGKRGNQSGKNVMVEPHRHEGVFICRGKEDALVTKNLVPGESVYGEKRVSISEGDDKIEYRAWNPFRSKLAAAILGGVDQIHIKPGAKVLYLGAASGTTVSHVSDIVGPDGLVYAVEFSHRSGRDLINLAKKRTNIIPVIEDARHPHKYRMLIAMVDVIFADVAQPDQTRIVALNAHTFLRNGGHFVISIKANCIDSTASAEAVFASEVKKMQQENMKPQEQLTLEPYERDHAVVVGVYRPPPKVKN
B6: the binding result is “binds”.

B7: Ribosome biogenesis protein BRX1 homolog (protein, UniProt Q8TDN6 1-353)
chain: MAATKRKRRGGFAVQAKKPKRNEIDAEPPAKRHATAEEVEEEERDRIPGPVCKGKWKNKERILIFSSRGINFRTRHLMQDLRMLMPHSKADTKMDRKDKLFVINEVCEMKNCNKCIYFEAKKKQDLYMWLSNSPHGPSAKFLVQNIHTLAELKMTGNCLKGSRPLLSFDPAFDELPHYALLKELLIQIFSTPRYHPKSQPFVDHVFTFTILDNRIWFRNFQIIEEDAALVEIGPRFVLNLIKIFQGSFGGPTLYENPHYQSPNMHRRVIRSITAAKYREKQQVKDVQKLRKKEPKTLLPHDPTADVFVTPAEEKPIEIQWVKPEPKVDLKARKKRIYKRQRKMKQRMDSGKTK
As for B7, the binding result was “binds”.

B8: Nucleolar protein 16 (protein, UniProt Q9Y3C1 1-178)
chain: MPKAKGKTRRQKFGYSVNRKRLNRNARRKAAPRIECSHIRHAWDHAKSVRQNLAEMGLAVDPNRAVPLRKRKVKAMEVDIEERPKELVRKPYVLNDLEAEASLPEKKGNTLSRDLIDYVRYMVENHGEDYKAMARDEKNYYQDTPKQIRSKINVYKRFYPAEWQDFLDSLQKRKMEVE
B8: the binding result is “binds”.

B9: Putative oxidoreductase GLYR1 (protein, UniProt Q49A26 1-553)
chain: MAAVSLRLGDLVWGKLGRYPPWPGKIVNPPKDLKKPRGKKCFFVKFFGTEDHAWIKVEQLKPYHAHKEEMIKINKGKRFQQAVDAVEEFLRRAKGKDQTSSHNSSDDKNRRNSSEERSRPNSGDEKRKLSLSEGKVKKNMGEGKKRVSSGSSERGSKSPLKRAQEQSPRKRGRPPKDEKDLTIPESSTVKGMMAGPMAAFKWQPTASEPVKDADPHFHHFLLSQTEKPAVCYQAITKKLKICEEETGSTSIQAADSTAVNGSITPTDKKIGFLGLGLMGSGIVSNLLKMGHTVTVWNRTAEKCDLFIQEGARLGRTPAEVVSTCDITFACVSDPKAAKDLVLGPSGVLQGIRPGKCYVDMSTVDADTVTELAQVIVSRGGRFLEAPVSGNQQLSNDGMLVILAAGDRGLYEDCSSCFQAMGKTSFFLGEVGNAAKMMLIVNMVQGSFMATIAEGLTLAQVTGQSQQTLLDILNQGQLASIFLDQKCQNILQGNFKPDFYLKYIQKDLRLAIALGDAVNHPTPMAAAANEVYKRAKALDQSDNDMSAVYRAYIH
Regarding B9, the binding entry is listed as “binds”.

B10: Coiled-coil domain-containing protein 137 (protein, UniProt Q6PK04 1-289)
chain: MAGAGRGAAVSRVQAGPGSPRRARGRQQVQPLGKQRPAPWPGLRSKEKKKVNCKPKNQDEQEIPFRLREIMRSRQEMKNPISNKKRKKAAQVTFRKTLEKEAKGEEPDIAVPKFKQRKGESDGAYIHRMQQEAQHVLFLSKNQAIRQPEVQAAPKEKSEQKKAKKAFQKRRLDKVRRKKEEKAADRLEQELLRDTVKFGEVVLQPPELTARPQRSVSKDQPGRRSQMLRMLLSPGGVSQPLTASLARQRIVEEERERAVQAYRALKQRQQQLHGERPHLTSRKKPEPQL
For B10, the binding entry is on record as “binds”.
